The list shows a part of the results, in another mix than the full data. Calls are pooled over several reports, among them a noisy single-well screen. This is one part of the list.
Legend:
Conditions in all cases: stereoisomer not certain
OR3A3 = tested on: T1, OR3A3
T1 sequence (whole entry): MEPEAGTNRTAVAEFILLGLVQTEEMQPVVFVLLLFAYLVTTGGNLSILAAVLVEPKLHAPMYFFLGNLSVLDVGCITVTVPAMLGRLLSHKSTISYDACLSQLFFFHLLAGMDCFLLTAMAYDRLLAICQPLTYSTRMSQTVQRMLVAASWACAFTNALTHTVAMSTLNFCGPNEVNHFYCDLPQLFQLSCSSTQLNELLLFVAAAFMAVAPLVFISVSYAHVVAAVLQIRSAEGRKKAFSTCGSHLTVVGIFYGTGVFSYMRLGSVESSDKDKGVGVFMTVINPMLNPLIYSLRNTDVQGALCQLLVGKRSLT
In short: (§1)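 Each receptor–molecule pair is labelled responsive or non-responsive (inactive) according to whether the original authors judged the measured signal statistically different from baseline. The data were taken from the main text and supplementary material of published papers and checked for typos and inconsistencies. Assay methods differed by source, with transient luciferase assays in mammalian cell lines being common.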

Protein sequences, listed by entry. Tags and fused reporters are not part of them. Lines headed by an entry give the natural chain unless they say otherwise; changes in a name come on top.
UniProt Q8NGL6: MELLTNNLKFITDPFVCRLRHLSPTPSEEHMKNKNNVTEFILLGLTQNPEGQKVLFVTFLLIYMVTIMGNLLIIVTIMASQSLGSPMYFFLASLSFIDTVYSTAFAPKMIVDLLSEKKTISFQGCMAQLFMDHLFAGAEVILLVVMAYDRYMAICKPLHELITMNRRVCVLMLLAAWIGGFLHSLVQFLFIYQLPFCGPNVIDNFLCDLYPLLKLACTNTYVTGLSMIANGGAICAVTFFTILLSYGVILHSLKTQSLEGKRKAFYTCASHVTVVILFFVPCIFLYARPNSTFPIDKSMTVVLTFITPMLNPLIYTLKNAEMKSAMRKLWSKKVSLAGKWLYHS
UniProt P0C604: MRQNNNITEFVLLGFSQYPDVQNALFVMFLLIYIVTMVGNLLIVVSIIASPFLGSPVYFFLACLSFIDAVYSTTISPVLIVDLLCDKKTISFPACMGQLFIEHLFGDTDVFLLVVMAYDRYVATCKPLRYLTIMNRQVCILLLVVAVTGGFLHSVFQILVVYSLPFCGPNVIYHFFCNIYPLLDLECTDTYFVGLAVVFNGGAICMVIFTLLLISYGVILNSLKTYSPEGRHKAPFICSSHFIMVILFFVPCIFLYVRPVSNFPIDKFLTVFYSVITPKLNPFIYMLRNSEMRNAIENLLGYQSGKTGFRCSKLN

OR3A4 = tested on: T2, OR3A4
T2 sequence (whole entry): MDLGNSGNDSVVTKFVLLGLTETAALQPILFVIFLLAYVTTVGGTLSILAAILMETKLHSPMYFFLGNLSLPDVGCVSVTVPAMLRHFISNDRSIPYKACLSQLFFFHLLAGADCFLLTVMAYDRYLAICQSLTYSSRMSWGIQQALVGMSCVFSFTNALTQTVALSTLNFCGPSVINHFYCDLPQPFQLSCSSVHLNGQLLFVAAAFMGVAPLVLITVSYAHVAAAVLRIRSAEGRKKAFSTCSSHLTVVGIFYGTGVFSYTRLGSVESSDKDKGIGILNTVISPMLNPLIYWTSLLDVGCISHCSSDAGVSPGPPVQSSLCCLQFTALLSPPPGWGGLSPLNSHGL
In short: as §1

OR4A16 (Homo sapiens) = biological target: T3, OR4A16 (Homo sapiens) (UniProt Q8NH70)
T3 sequence (whole entry): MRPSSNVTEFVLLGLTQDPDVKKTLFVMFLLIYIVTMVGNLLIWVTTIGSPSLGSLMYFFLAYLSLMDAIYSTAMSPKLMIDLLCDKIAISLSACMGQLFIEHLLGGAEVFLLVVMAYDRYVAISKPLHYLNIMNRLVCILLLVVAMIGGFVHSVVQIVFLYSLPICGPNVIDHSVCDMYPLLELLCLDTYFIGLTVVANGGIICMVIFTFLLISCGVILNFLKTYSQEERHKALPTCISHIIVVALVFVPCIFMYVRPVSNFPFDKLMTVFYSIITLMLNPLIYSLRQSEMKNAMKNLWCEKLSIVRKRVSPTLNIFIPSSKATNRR
In short: as §1

OR4A4P (Homo sapiens) = biological target: T4, OR4A4P (Homo sapiens) (UniProt Q8NGN8)
T4 sequence (whole entry): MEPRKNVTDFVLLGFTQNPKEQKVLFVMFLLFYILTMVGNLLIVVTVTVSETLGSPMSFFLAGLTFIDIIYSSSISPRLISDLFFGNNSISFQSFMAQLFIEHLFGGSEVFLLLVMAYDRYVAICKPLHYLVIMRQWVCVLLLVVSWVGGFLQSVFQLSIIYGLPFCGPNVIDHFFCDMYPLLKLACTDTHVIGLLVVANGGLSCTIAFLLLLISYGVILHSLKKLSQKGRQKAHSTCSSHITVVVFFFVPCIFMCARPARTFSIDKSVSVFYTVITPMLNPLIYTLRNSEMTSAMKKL
In short: as §1

OR4A5 (Homo sapiens) = biological target: T5, OR4A5 (Homo sapiens) (UniProt Q8NH83)
T5 sequence (whole entry): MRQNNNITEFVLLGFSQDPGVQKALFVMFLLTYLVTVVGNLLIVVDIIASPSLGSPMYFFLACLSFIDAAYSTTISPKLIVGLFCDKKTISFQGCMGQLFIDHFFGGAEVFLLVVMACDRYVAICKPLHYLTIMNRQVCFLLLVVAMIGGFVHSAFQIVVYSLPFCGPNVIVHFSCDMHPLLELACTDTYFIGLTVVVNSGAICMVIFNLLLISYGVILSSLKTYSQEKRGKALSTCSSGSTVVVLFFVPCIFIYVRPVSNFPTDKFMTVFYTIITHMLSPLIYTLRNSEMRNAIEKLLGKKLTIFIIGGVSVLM
In short: as §1

OR4A5 = tested on: T6, OR4A5
T6 sequence (whole entry): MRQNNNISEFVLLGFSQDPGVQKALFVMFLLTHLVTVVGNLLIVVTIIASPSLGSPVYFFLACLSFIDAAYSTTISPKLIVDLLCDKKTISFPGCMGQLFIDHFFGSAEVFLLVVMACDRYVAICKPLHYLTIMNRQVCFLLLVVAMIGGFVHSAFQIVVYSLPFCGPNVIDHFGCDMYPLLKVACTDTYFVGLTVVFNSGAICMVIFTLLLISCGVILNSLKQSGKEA
In short: as §1

OR4B1 (Homo sapiens) = biological target: T7, OR4B1 (Homo sapiens) (UniProt Q8NGF8)
T7 sequence (whole entry): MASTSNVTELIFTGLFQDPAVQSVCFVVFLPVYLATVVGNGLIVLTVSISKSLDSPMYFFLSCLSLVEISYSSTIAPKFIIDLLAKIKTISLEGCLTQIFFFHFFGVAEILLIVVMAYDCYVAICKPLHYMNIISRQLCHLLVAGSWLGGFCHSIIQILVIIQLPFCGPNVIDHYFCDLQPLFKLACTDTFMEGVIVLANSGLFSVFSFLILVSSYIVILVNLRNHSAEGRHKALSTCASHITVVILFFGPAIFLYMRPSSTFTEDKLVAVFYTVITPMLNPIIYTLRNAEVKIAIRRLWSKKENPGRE
In short: as §1

OR4C11 (Homo sapiens) = biological target: T8, OR4C11 (Homo sapiens) (UniProt Q6IEV9)
T8 sequence (whole entry): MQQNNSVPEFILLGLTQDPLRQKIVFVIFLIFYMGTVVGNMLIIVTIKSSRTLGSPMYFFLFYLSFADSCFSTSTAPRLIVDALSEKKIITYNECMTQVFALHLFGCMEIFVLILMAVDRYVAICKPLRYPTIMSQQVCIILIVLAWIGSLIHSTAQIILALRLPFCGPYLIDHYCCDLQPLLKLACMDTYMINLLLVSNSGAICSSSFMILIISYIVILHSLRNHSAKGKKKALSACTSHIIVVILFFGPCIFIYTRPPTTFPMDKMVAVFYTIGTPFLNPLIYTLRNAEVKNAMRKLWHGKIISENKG
In short: as §1

OR4A15 (Homo sapiens) = OR4A15 (Homo sapiens) (UniProt Q8NGL6)
In short: as §1

OR4A8 (Homo sapiens) = OR4A8 (Homo sapiens) (UniProt P0C604)
In short: as §1

Measured: odorant receptor agonist call

COC(=O)c1ccccc1O
not listed: OR4A15 (Homo sapiens) | OR4A8 (Homo sapiens)
inactive: all other assays above

CCCCCCCCOC(C)=O
not listed: OR4A15 (Homo sapiens) | OR4A8 (Homo sapiens)
inactive: all other assays above

C=CCc1ccc(OC)c(OC)c1
not listed: OR4A15 (Homo sapiens) | OR4A8 (Homo sapiens)
inactive: all other assays above

O=C1CCCCCCCCCCCC(=O)OCCO1
active: OR4A5 (Homo sapiens)
not listed: OR4A15 (Homo sapiens) | OR4A8 (Homo sapiens)
inactive: all other assays above

O=CCc1ccccc1
active: OR4A5 (Homo sapiens)
not listed: OR4A15 (Homo sapiens) | OR4A8 (Homo sapiens)
inactive: all other assays above

CCCCCCCOC(C)=O
not listed: OR4A15 (Homo sapiens) | OR4A8 (Homo sapiens)
inactive: all other assays above

CC(C)C=O
not listed: OR4A15 (Homo sapiens) | OR4A8 (Homo sapiens)
inactive: all other assays above

CC1COCc2cc3c(cc21)C(C)(C)C(C)C3(C)C (configuration not stated)
inactive: OR3A4 | OR4A5 | OR4B1 (Homo sapiens)
not listed: OR4A15 (Homo sapiens) | OR4A8 (Homo sapiens)
active: all other assays above

CCC1(O)C2(C)CCC(C2)C1(C)C (configuration not stated)
not listed: OR4A15 (Homo sapiens) | OR4A8 (Homo sapiens)
inactive: all other assays above

CC(C)CCC(=O)O
not listed: OR4A15 (Homo sapiens) | OR4A8 (Homo sapiens)
inactive: all other assays above

CC(=O)C(C)=O
not listed: OR4A15 (Homo sapiens) | OR4A8 (Homo sapiens)
inactive: all other assays above

c1ccc(Oc2ccccc2)cc1
not listed: OR4A15 (Homo sapiens) | OR4A8 (Homo sapiens)
inactive: all other assays above

CC12CCC(C1)C(C)(C)C2=O (configuration not stated)
not listed: OR4A15 (Homo sapiens) | OR4A8 (Homo sapiens)
inactive: all other assays above

CC=Cc1ccc(O)c(OC)c1
active: OR3A3 | OR3A4 | OR4A5 (Homo sapiens)
not listed: OR4A15 (Homo sapiens) | OR4A8 (Homo sapiens)
inactive: all other assays above

C=CC(C)(O)CCC=C(C)C (configuration not stated)
not listed: OR4A15 (Homo sapiens) | OR4A8 (Homo sapiens)
inactive: all other assays above

O=C1CCCCCCCCCCCCCCO1
not listed: OR4A15 (Homo sapiens) | OR4A8 (Homo sapiens)
inactive: all other assays above

CCCCCCCCCC=O
active: OR4A5 (Homo sapiens)
not listed: OR4A15 (Homo sapiens) | OR4A8 (Homo sapiens)
inactive: all other assays above

CC12C=CCC1C1CCC3=CC(=O)CCC3(C)C1CC2 (configuration not stated)
not listed: OR4A15 (Homo sapiens) | OR4A8 (Homo sapiens)
inactive: all other assays above

CCCCCCCCCCC=O
not listed: OR4A15 (Homo sapiens) | OR4A8 (Homo sapiens)
inactive: all other assays above

CC12C=CCC1C1CCC3CC(=O)CCC3(C)C1CC2 (configuration not stated)
active: OR4A5
not listed: OR4A4P (Homo sapiens) | OR4B1 (Homo sapiens)
inactive: all other assays above

CC(C)CC(=O)O
not listed: OR4A15 (Homo sapiens) | OR4A8 (Homo sapiens)
inactive: all other assays above

COc1ccccc1O
not listed: OR4A15 (Homo sapiens) | OR4A8 (Homo sapiens)
inactive: all other assays above

CCC=CCCO
not listed: OR4A15 (Homo sapiens) | OR4A8 (Homo sapiens)
inactive: all other assays above

CC1=CCC(C(C)(C)O)CC1 (configuration not stated)
not listed: OR4A15 (Homo sapiens) | OR4A8 (Homo sapiens)
inactive: all other assays above
